Patent US9611303B2, “Modified biotin-binding protein” (Japan Tobacco Inc., priority 2009, dated 2017)

Experiments:
[1] = Purification of LATM2 with 2-iminobiotin-agarose; type: binding
Method: LATM2 was purified through a column charged with 2-iminobiotin-agarose (manufactured by Sigma-Aldrich Corp.) in accordance with the method by Hofmann, et al., (1980). IPTG was added to 25 mL of a culture solution of E. coli transformed with each LATM2 in a final concentration of 1 mM to induce expression. The E. coli cells were collected by centrifugation, suspended in 1.5 mL of 50 mM CAPS (pH 12) containing 50 mM NaCl, and then sonicated. To the supernatant of the disrupted cells, 500 μL of 2-iminobiotin-agarose was added, which was then packed in a column. The column was sufficiently washed with 50 mM CAPS (pH 12) containing 500 mM NaCl, and elution was then performed with 50 mM NH4OAC (pH 4).
(§1) The recovery rate in Table 2 was calculated by dividing the amount of LATM2 protein after purification by the amount of LATM2 protein before purification and was expressed by percent by multiplying the quotient by 100. The degree of purification was the ratio of the amount of LATM2 protein to the total amount of proteins in the purified fraction and was expressed by percent by multiplying the ratio by 100. The recovery rates and the degrees of purification in biotin-agarose were the results after binding at pH 7 and elution with an excess amount of biotin.

[2] = Purification of LATM2 with biotin-agarose; type: binding; conditions: Biotin-agarose, binding at pH 7, recovery with 10 mM biotin
Method: Purification with biotin-agarose (manufactured by Sigma-Aldrich Corp.) was performed by the following procedure. After induced expression of 25 mL of a culture solution of E. coli for each LATM2, the E. coli cells were suspended in 1.5 mL of a 100 mM potassium phosphate buffer (pH 7.0), and then sonicated. To the supernatant of the disrupted cells. 400 μL of biotin-agarose was added, which was followed by upside-down mixing for 1 hr. […]
In TM2 S36A-T78A-D116A, the E. coli cells were suspended in 1.5 mL of 50 mM CAPS (pH 12) containing 50 mM NaCl, and then sonicated. To the disrupted cells, 400 μL of biotin-agarose was added, which was followed by upside-down mixing for 1 hr. The column was sufficiently washed with 50 mM CAPS (pH 12) containing 500 mM NaCl, and elution was then performed with 1 mL of PBS (pH 7.4) containing 10 mM biotin.
In TM2 S36A-D116A, the E. coli cells were suspended in 1.5 mL of a 100 mM potassium phosphate buffer (pH 4.0), and then sonicated. To the pupernatant of the disrupted cells, 400 μL of biotin-agarose was added. Washing was performed with a 100 mM potassium phosphate buffer (pH 4) containing 500 mM NaCl, and elution was performed with 1 mL of PBS (pH 7) containing 10 mM biotin. Biotin binding to LATM2 that has been eluted with an excess amount of biotin was removed by dialysis with a 20 mM potassium phosphate buffer overnight.
as §1

| Molecule | Degree of purification (%) [1] [%] | Degree of purification (%) [2] [%] |
| --- | --- | --- |
| TM2 L97T: TM2 in which the 97th leucine was replaced with threonine (protein) MSDVQSSLTGTWYNELNSKMELTANKDGTLTGKYLSKVGDVYVPYPLSGRYNLQPPAGQGVALGWAVSWENSKIHSATTWSGQFFSESSPVILTQWTLSSSTARGDVWESTLVGNDSFTKTAPTEQQIAHAQLHCRAPRLK | 0 | 0 |
| TM2 L97T-V113R: TM2 with 97th leucine replaced with threonine and 113th valine with arginine (protein) MSDVQSSLTGTWYNELNSKMELTANKDGTLTGKYLSKVGDVYVPYPLSGRYNLQPPAGQGVALGWAVSWENSKIHSATTWSGQFFSESSPVILTQWTLSSSTARGDVWESTLRGNDSFTKTAPTEQQIAHAQLHCRAPRLK | 0 | 95 |
| TM2P46T-T78A-D116A: TM2 with P46T, T78A and D116A replacements; SEQ ID NO: 18 (protein, Synthetic TM2 P46T-T78A-D116A) MSDVQSSLTGTWYNELNSKMELTANKDGTLTGKYLSKVGDVYVPYTLSGRYNLQPPAGQGVALGWAVSWENSKIHSAATWSGQFFSESSPVILTQWLLSSSTARGDVWESTLVGNASFTKTAPTEQQIAHAQLHCRAPRLK | 95 | 95 |
| TM2P46T-T78A: TM2 with 46th proline replaced with threonine and 78th threonine with alanine; SEQ ID NO: 14 (protein, Synthetic TM2 P46T-T78A) MSDVQSSLTGTWYNELNSKMELTANKDGTLTGKYLSKVGDVYVPYTLSGRYNLQPPAGQGVALGWAVSWENSKIHSAATWSGQFFSESSPVILTQWLLSSSTARGDVWESTLVGNDSFTKTAPTEQQIAHAQLHCRAPRLK | 95 | 95 |
| TM2 V113R: TM2 in which the 113th valine was replaced with arginine (protein) MSDVQSSLTGTWYNELNSKMELTANKDGTLTGKYLSKVGDVYVPYPLSGRYNLQPPAGQGVALGWAVSWENSKIHSATTWSGQFFSESSPVILTQWLLSSSTARGDVWESTLRGNDSFTKTAPTEQQIAHAQLHCRAPRLK | 0 | 95 |
| TM2P46T-D116A: TM2 with 46th proline replaced with threonine and 116th aspartic acid with alanine; SEQ ID NO: 16 (protein, Synthetic TM2 P46T-D116A) MSDVQSSLTGTWYNELNSKMELTANKDGTLTGKYLSKVGDVYVPYTLSGRYNLQPPAGQGVALGWAVSWENSKIHSATTWSGQFFSESSPVILTQWLLSSSTARGDVWESTLVGNASFTKTAPTEQQIAHAQLHCRAPRLK | 95 | 95 |
